Experimental data: the supplement of paper PMC10032668
The list shows a part of the results. The list holds hits alone, and they repeat only in part.

Amino acid sequences for entries named in this document (tags omitted).
BUB3, O43684, UniProt O43684, whole entry: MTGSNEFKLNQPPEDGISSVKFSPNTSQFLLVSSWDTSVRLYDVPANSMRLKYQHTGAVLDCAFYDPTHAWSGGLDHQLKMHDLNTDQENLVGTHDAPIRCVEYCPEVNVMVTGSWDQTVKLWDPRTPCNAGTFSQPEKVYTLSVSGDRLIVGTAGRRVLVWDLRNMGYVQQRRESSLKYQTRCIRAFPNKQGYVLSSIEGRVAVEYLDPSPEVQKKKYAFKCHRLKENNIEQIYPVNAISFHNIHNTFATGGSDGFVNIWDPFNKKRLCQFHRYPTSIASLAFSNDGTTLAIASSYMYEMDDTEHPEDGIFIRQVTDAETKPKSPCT
GTF2F2, P13984, UniProt P13984, whole entry: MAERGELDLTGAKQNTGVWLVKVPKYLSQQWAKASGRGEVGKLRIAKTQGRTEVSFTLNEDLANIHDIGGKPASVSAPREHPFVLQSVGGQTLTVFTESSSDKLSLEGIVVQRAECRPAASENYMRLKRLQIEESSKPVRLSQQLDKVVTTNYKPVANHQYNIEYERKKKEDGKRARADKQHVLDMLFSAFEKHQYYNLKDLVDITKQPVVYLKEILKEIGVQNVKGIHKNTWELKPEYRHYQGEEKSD
HBS1L, Q9Y450, UniProt Q9Y450, whole entry: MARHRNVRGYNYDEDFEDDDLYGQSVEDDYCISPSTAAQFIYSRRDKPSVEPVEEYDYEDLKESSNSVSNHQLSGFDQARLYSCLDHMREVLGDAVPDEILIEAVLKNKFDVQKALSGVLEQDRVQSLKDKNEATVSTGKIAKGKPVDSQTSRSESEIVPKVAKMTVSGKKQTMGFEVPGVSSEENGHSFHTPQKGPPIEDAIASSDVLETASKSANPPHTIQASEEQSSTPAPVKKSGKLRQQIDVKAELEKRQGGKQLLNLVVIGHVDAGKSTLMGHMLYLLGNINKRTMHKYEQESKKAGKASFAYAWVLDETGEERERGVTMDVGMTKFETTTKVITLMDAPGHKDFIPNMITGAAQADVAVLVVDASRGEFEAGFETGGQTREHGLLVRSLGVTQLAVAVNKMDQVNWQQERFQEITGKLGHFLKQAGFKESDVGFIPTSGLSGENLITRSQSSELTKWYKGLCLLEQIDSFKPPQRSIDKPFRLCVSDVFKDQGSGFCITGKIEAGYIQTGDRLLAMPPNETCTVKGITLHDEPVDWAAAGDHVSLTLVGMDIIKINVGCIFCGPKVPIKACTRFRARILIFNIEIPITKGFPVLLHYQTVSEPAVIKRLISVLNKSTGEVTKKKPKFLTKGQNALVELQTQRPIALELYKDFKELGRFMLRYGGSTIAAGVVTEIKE
PFN1, P07737, UniProt P07737, whole entry: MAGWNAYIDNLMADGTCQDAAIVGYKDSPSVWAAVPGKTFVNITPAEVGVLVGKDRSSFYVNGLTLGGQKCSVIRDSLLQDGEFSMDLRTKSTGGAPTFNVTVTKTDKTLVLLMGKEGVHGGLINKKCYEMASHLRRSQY
RBBP5, Q15291, UniProt Q15291, whole entry: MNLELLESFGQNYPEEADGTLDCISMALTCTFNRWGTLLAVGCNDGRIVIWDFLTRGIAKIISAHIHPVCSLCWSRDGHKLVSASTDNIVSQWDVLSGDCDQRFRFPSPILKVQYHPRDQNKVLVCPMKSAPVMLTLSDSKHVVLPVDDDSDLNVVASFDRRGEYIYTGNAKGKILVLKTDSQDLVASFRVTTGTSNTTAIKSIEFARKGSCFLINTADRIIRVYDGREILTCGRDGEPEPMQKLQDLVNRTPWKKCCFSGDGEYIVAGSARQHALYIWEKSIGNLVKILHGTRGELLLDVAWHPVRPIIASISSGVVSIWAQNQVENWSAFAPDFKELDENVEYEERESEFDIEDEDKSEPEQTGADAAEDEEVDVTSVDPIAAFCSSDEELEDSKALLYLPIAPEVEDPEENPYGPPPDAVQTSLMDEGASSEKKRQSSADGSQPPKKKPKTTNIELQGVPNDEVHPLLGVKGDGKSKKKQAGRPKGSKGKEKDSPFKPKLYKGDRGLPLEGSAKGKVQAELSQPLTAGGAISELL
ATP6V0D1, P61421, UniProt P61421, whole entry: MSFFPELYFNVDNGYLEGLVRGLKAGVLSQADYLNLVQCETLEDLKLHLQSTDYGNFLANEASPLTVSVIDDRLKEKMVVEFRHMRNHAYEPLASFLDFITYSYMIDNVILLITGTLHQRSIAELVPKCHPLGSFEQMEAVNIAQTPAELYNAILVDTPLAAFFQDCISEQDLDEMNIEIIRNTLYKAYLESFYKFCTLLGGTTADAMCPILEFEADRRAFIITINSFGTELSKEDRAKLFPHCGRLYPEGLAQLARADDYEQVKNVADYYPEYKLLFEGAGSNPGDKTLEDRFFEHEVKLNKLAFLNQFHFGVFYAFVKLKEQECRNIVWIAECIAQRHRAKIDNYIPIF
CAPRIN1, Q14444, UniProt Q14444, whole entry: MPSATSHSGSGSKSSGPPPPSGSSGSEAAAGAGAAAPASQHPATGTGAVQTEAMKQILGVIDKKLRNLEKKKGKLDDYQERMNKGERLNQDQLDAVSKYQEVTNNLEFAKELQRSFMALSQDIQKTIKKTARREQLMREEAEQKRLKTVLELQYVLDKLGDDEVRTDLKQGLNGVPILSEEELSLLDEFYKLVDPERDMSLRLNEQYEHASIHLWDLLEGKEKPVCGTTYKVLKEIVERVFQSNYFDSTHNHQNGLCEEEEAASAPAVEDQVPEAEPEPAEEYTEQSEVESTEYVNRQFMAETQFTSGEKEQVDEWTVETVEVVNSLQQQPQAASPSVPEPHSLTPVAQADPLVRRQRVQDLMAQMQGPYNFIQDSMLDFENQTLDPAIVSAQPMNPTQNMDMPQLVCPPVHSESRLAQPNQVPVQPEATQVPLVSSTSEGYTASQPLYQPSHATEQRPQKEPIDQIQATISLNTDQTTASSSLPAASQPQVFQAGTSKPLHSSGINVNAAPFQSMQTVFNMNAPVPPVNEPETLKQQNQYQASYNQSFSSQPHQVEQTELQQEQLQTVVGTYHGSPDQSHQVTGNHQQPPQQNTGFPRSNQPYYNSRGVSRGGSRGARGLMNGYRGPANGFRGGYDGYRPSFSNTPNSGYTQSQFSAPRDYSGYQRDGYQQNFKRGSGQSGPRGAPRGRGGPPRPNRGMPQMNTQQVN
KHDRBS1, Q07666, UniProt Q07666, whole entry: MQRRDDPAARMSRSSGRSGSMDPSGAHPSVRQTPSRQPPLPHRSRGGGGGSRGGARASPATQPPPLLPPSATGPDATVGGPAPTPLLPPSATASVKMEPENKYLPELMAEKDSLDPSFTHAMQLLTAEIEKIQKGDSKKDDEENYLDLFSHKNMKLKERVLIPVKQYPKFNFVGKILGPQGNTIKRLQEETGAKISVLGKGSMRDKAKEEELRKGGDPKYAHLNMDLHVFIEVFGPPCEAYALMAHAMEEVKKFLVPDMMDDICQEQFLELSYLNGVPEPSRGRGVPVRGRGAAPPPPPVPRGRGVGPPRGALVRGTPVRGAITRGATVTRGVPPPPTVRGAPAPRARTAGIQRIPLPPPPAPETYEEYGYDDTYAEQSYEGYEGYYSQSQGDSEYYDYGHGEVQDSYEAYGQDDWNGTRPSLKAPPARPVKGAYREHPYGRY
EIF5, P55010, UniProt P55010, whole entry: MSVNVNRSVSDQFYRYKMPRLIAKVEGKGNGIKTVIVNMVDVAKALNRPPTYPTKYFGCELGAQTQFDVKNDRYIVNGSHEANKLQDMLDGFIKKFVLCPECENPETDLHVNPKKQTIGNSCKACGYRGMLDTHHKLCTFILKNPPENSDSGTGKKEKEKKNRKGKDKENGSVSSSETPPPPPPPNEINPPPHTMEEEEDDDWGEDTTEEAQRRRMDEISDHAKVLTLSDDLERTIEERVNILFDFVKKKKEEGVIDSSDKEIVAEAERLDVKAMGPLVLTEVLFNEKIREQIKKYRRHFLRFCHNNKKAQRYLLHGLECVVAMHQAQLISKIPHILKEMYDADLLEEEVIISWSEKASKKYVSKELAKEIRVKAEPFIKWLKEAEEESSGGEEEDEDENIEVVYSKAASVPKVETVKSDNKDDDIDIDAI
SNRPG, P62308, UniProt P62308, whole entry: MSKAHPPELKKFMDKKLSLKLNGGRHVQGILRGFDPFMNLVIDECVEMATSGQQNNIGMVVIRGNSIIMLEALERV
HNRNPU, Q00839, UniProt Q00839, whole entry: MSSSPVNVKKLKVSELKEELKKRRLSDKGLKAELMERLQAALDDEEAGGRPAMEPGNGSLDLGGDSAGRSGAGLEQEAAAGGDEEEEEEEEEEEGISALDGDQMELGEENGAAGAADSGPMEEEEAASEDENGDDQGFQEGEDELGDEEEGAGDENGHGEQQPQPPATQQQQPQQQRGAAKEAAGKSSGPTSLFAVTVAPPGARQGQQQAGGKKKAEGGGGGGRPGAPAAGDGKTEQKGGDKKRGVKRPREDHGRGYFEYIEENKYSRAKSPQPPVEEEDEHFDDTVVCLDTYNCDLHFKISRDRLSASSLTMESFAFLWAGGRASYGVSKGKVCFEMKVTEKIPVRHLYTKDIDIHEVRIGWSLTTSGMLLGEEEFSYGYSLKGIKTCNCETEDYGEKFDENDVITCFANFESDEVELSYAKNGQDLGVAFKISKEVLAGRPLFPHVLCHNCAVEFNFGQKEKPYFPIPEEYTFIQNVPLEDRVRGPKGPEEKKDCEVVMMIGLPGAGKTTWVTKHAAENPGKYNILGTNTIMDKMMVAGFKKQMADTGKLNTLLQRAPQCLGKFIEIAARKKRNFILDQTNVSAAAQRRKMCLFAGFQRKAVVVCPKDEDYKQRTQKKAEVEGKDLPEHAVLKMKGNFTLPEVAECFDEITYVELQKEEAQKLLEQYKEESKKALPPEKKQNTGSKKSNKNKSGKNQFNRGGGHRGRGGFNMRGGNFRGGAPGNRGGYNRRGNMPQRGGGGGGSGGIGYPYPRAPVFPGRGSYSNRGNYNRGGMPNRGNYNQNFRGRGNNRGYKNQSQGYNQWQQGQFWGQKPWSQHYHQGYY
TRAPPC5, Q8IUR0, UniProt Q8IUR0, whole entry: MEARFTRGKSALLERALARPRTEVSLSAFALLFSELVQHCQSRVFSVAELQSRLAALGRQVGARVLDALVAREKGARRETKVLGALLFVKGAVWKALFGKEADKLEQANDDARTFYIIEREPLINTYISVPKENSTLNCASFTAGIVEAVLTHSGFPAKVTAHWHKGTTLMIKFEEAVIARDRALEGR
NDUFB7, P17568, UniProt P17568, whole entry: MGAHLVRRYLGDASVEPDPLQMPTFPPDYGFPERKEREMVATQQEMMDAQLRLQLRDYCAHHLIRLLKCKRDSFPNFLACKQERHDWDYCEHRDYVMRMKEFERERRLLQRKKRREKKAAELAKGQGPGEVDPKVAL
NUP153, P49790, UniProt P49790, whole entry: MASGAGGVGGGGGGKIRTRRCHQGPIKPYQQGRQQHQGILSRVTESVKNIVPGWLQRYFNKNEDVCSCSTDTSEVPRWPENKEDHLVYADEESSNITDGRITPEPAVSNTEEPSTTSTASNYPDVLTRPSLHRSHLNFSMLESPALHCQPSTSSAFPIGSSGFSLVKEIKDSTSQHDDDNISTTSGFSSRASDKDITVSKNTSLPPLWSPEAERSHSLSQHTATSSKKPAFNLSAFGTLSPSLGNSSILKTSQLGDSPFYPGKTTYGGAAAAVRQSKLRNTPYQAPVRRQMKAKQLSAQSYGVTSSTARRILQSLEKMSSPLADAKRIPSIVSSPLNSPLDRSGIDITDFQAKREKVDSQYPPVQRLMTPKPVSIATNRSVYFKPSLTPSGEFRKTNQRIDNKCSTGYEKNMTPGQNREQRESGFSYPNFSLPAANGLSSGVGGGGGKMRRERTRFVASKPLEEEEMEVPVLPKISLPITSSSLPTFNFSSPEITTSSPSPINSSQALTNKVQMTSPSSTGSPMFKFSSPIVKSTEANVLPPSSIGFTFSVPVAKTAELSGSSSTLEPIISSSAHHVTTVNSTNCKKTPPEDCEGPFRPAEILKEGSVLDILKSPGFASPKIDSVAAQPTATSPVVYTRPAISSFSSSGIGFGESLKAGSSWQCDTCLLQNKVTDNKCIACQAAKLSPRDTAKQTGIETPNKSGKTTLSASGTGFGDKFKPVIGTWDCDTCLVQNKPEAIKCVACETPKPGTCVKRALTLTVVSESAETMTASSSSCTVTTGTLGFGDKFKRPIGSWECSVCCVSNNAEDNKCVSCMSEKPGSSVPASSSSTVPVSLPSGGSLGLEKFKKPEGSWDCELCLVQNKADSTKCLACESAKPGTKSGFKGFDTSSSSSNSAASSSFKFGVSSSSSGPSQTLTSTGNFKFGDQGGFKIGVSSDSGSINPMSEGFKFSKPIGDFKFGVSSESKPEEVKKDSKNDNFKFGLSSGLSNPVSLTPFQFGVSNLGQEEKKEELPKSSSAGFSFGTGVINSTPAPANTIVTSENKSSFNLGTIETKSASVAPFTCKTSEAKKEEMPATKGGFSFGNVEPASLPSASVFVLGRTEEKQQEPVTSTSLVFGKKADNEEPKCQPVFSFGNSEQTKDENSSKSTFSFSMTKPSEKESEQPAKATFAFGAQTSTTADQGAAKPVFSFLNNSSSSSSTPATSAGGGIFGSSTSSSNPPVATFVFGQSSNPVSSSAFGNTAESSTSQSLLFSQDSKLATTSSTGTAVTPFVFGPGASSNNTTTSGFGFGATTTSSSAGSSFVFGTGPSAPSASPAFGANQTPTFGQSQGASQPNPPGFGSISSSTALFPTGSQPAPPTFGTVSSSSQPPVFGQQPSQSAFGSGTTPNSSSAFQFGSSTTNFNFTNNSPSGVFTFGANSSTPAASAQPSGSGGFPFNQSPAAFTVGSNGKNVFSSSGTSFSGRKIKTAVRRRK

What was measured:
Assay in all cases: PRISMA enrichment of interactor (LFQ) in peptide spot vs all other peptide spots (log2 fold change); higher = stronger / more specific binding of the interactor to the peptide
[1] = biological target: ATP5MG, O75964
Description: (§1)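 PRISMA: 15-aa overlapping tiles (offset 8 aa) of 60 microproteins, plus SOS1/GLUT1 control peptides, were spot-synthesized on cellulose membranes in triplicate. Membranes were incubated with benzonase-treated HEK293T lysate, and bound proteins were identified by LC-MS/MS with LFQ. Enrichment is the log2 fold change of each protein in one spot versus all other spots. Only interactors passing the significance cutoff are listed.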

[2] = biological target: BUB3, O43684
Description: as §1

[3] = biological target: C1QBP, Q07021
Description: as §1

[4] = biological target: CD2BP2, O95400
Description: as §1

[5] = biological target: CIAO1, O76071
Description: as §1

[6] = biological target: CPSF1, Q10570
Description: as §1

[7] = biological target: ERLIN2, O94905
Description: as §1

[8] = biological target: GPC4, O75487
Description: as §1

[9] = biological target: GTF2F2, P13984
Description: as §1

[10] = biological target: HBS1L, Q9Y450
Description: as §1

[11] = biological target: IPO11, Q9UI26
Description: as §1

[12] = biological target: KLF16, Q9BXK1
Description: as §1

[13] = biological target: MAP3K20, Q9NYL2
Description: as §1

[14] = biological target: MCMBP, Q9BTE3
Description: as §1

[15] = biological target: MPDU1, O75352
Description: as §1

[16] = biological target: NR3C1, P04150
Description: as §1

[17] = biological target: NUSAP1, Q9BXS6
Description: as §1

[18] = biological target: PEX11B, O96011
Description: as §1

[19] = biological target: PFN1, P07737
Description: as §1

[20] = biological target: PSIP1, O75475
Description: as §1

[21] = biological target: PWP1, Q13610
Description: as §1

[22] = biological target: RAB11A, P62491
Description: as §1

[23] = biological target: RABL3, Q5HYI8
Description: as §1

[24] = biological target: RBBP5, Q15291
Description: as §1

[25] = biological target: RIC8A, Q9NPQ8
Description: as §1

[26] = biological target: SMC3, Q9UQE7
Description: as §1

[27] = biological target: SPATS2L, Q9NUQ6
Description: as §1

[28] = biological target: STMN1, P16949
Description: as §1

[29] = biological target: TBCD, Q9BTW9
Description: as §1

[30] = biological target: UFL1, O94874
Description: as §1

[31] = biological target: ZC2HC1A, Q96GY0
Description: as §1

[32] = biological target: ATP6V0D1, P61421
Description: as §1

[33] = biological target: CAPRIN1, Q14444
Description: as §1

[34] = biological target: CSRP2, Q16527
Description: as §1

[35] = biological target: DDX5, P17844
Description: as §1

[36] = biological target: DLST, P36957
Description: as §1

[37] = biological target: EIF4H, Q15056
Description: as §1

[38] = biological target: G3BP2, Q9UN86
Description: as §1

[39] = biological target: HNRNPA1, P09651
Description: as §1

[40] = biological target: ITCH, Q96J02
Description: as §1

[41] = biological target: KHDRBS1, Q07666
Description: as §1

[42] = biological target: LSM12, Q3MHD2
Description: as §1

[43] = biological target: NFX1, Q12986
Description: as §1

[44] = biological target: PRDX4, Q13162
Description: as §1

[45] = biological target: SERF2, P84101
Description: as §1

[46] = biological target: TXNDC5, Q8NBS9
Description: as §1

[47] = biological target: EIF5, P55010
Description: as §1

[48] = biological target: ELP1, O95163
Description: as §1

[49] = biological target: MPC2, O95563
Description: as §1

[50] = biological target: PUS1, Q9Y606
Description: as §1

[51] = biological target: RER1, O15258
Description: as §1

[52] = biological target: SNRPG, P62308
Description: as §1

[53] = biological target: ATP5PF, P18859
Description: as §1

[54] = biological target: BYSL, Q13895
Description: as §1

[55] = biological target: CALU, O43852
Description: as §1

[56] = biological target: CHCHD2, Q9Y6H1
Description: as §1

[57] = biological target: DDX56, Q9NY93
Description: as §1

[58] = biological target: ECHS1, P30084
Description: as §1

[59] = biological target: EIF5B, O60841
Description: as §1

[60] = biological target: HAT1, O14929
Description: as §1

[61] = biological target: HERC5, Q9UII4
Description: as §1

[62] = biological target: HNRNPU, Q00839
Description: as §1

[63] = biological target: MKI67, P46013
Description: as §1

[64] = biological target: MTDH, Q86UE4
Description: as §1

[65] = biological target: NMD3, Q96D46
Description: as §1

[66] = biological target: OGFR, Q9NZT2
Description: as §1

[67] = biological target: RAE1, P78406
Description: as §1

[68] = biological target: TF, P02787
Description: as §1

[69] = biological target: TRAPPC5, Q8IUR0
Description: as §1

[70] = biological target: VCP, P55072
Description: as §1

[71] = biological target: DDX1, Q92499
Description: as §1

[72] = biological target: DDX50, Q9BQ39
Description: as §1

[73] = biological target: DHX37, Q8IY37
Description: as §1

[74] = biological target: DNAJC10, Q8IXB1
Description: as §1

[75] = biological target: EIF3D, O15371
Description: as §1

[76] = biological target: HDDC2, Q7Z4H3
Description: as §1

[77] = biological target: HEATR5B, Q9P2D3
Description: as §1

[78] = biological target: MCRIP2, Q9BUT9
Description: as §1

[79] = biological target: MOV10, Q9HCE1
Description: as §1

[80] = biological target: NDUFB7, P17568
Description: as §1

[81] = biological target: NUP153, P49790
Description: as §1

[82] = biological target: RO60, P10155
Description: as §1

[83] = biological target: SART1, O43290
Description: as §1

[84] = biological target: SCAMP3, O14828
Description: as §1

[85] = biological target: SENP3, Q9H4L4
Description: as §1

[86] = biological target: SLC35B2, Q8TB61
Description: as §1

[87] = biological target: SLC39A7, Q92504
Description: as §1

[88] = biological target: SURF4, O15260
Description: as §1

[89] = biological target: TAB2, Q9NYJ8
Description: as §1

[90] = biological target: ZFR, Q96KR1
Description: as §1

## APVDAAELPQRRRHR [RNF10]
[1]
  PRISMA enrichment of interactor (log2): 8.25
[2]
  PRISMA enrichment of interactor (log2): 4.2
[3]
  PRISMA enrichment of interactor (log2): 6.09
[4]
  PRISMA enrichment of interactor (log2): 3.99
[5]
  PRISMA enrichment of interactor (log2): 5.2
[6]
  PRISMA enrichment of interactor (log2): 4.54
[7]
  PRISMA enrichment of interactor (log2): 4.98
[8]
  PRISMA enrichment of interactor (log2): 6.29
[9]
  PRISMA enrichment of interactor (log2): 8.82
[10]
  PRISMA enrichment of interactor (log2): 4.66
[11]
  PRISMA enrichment of interactor (log2): 7.73
[12]
  PRISMA enrichment of interactor (log2): 5.8
[13]
  PRISMA enrichment of interactor (log2): 6.16
[14]
  PRISMA enrichment of interactor (log2): 4.45
[15]
  PRISMA enrichment of interactor (log2): 4.97
[16]
  PRISMA enrichment of interactor (log2): 4.71
[17]
  PRISMA enrichment of interactor (log2): 4.68
[18]
  PRISMA enrichment of interactor (log2): 10.7
[19]
  PRISMA enrichment of interactor (log2): 4.63
[20]
  PRISMA enrichment of interactor (log2): 5.27
[21]
  PRISMA enrichment of interactor (log2): 4.61
[22]
  PRISMA enrichment of interactor (log2): 5.66
[23]
  PRISMA enrichment of interactor (log2): 5.67
[24]
  PRISMA enrichment of interactor (log2): 4.24
[25]
  PRISMA enrichment of interactor (log2): 5.04
[26]
  PRISMA enrichment of interactor (log2): 7.2
[27]
  PRISMA enrichment of interactor (log2): 6.36
[28]
  PRISMA enrichment of interactor (log2): 6.9
[29]
  PRISMA enrichment of interactor (log2): 7.82
[30]
  PRISMA enrichment of interactor (log2): 5.45
[31]
  PRISMA enrichment of interactor (log2): 5.02

## MHIQVFVDMCFLLSW [RP11-432J24.5_2]
[32]
  PRISMA enrichment of interactor (log2): 5.97
[33]
  PRISMA enrichment of interactor (log2): 5.77
[34]
  PRISMA enrichment of interactor (log2): 5.94
[35]
  PRISMA enrichment of interactor (log2): 7.29
[36]
  PRISMA enrichment of interactor (log2): 4.46
[37]
  PRISMA enrichment of interactor (log2): 5.28
[38]
  PRISMA enrichment of interactor (log2): 6.47
[39]
  PRISMA enrichment of interactor (log2): 5.25
[40]
  PRISMA enrichment of interactor (log2): 5.5
[41]
  PRISMA enrichment of interactor (log2): 5.31
[42]
  PRISMA enrichment of interactor (log2): 4.69
[43]
  PRISMA enrichment of interactor (log2): 4.75
[44]
  PRISMA enrichment of interactor (log2): 5.93
[45]
  PRISMA enrichment of interactor (log2): 6.93
[46]
  PRISMA enrichment of interactor (log2): 6.23

## PVAPLFLHELLVGSP [PSMB8-AS1]
[32]
  PRISMA enrichment of interactor (log2): 7.04
[47]
  PRISMA enrichment of interactor (log2): 4.56
[48]
  PRISMA enrichment of interactor (log2): 4.76
[49]
  PRISMA enrichment of interactor (log2): 4.34
[50]
  PRISMA enrichment of interactor (log2): 5.11
[51]
  PRISMA enrichment of interactor (log2): 4.36
[52]
  PRISMA enrichment of interactor (log2): 6.03

## EHGHHKMELPDYRQW [NDUFB3]
[53]
  PRISMA enrichment of interactor (log2): 6.09
[54]
  PRISMA enrichment of interactor (log2): 4.39
[55]
  PRISMA enrichment of interactor (log2): 5.78
[56]
  PRISMA enrichment of interactor (log2): 4.63
[57]
  PRISMA enrichment of interactor (log2): 4.51
[58]
  PRISMA enrichment of interactor (log2): 4.74
[59]
  PRISMA enrichment of interactor (log2): 5.07
[60]
  PRISMA enrichment of interactor (log2): 4.23
[61]
  PRISMA enrichment of interactor (log2): 4.59
[62]
  PRISMA enrichment of interactor (log2): 4.24
[63]
  PRISMA enrichment of interactor (log2): 5.64
[64]
  PRISMA enrichment of interactor (log2): 6.14
[65]
  PRISMA enrichment of interactor (log2): 6.37
[66]
  PRISMA enrichment of interactor (log2): 4.48
[67]
  PRISMA enrichment of interactor (log2): 5.88
[68]
  PRISMA enrichment of interactor (log2): 5.49
[69]
  PRISMA enrichment of interactor (log2): 8.36
[70]
  PRISMA enrichment of interactor (log2): 6.18

## HPSGPARTQLGGQEG [TUG1]
[32]
  PRISMA enrichment of interactor (log2): 5.33
[71]
  PRISMA enrichment of interactor (log2): 8.01
[72]
  PRISMA enrichment of interactor (log2): 4.56
[73]
  PRISMA enrichment of interactor (log2): 4.34
[74]
  PRISMA enrichment of interactor (log2): 8.05
[75]
  PRISMA enrichment of interactor (log2): 5.55
[76]
  PRISMA enrichment of interactor (log2): 6.48
[77]
  PRISMA enrichment of interactor (log2): 3.86
[61]
  PRISMA enrichment of interactor (log2): 4.57
[78]
  PRISMA enrichment of interactor (log2): 4.03
[63]
  PRISMA enrichment of interactor (log2): 5.78
[79]
  PRISMA enrichment of interactor (log2): 8.31
[80]
  PRISMA enrichment of interactor (log2): 6.35
[81]
  PRISMA enrichment of interactor (log2): 5.84
[82]
  PRISMA enrichment of interactor (log2): 4.83
[83]
  PRISMA enrichment of interactor (log2): 7.2
[84]
  PRISMA enrichment of interactor (log2): 5.08
[85]
  PRISMA enrichment of interactor (log2): 6.31
[86]
  PRISMA enrichment of interactor (log2): 5.1
[87]
  PRISMA enrichment of interactor (log2): 5.5
[88]
  PRISMA enrichment of interactor (log2): 6.05
[89]
  PRISMA enrichment of interactor (log2): 5.54
[90]
  PRISMA enrichment of interactor (log2): 5.65
